Paper PMC12392934, “TCP19 regulates nitrogen‐dependent sheath blight susceptibility by modulating nitrogen uptake and signalling in rice”
Results are given in words; binding and its absence hold for the method and conditions named. Where a sequence is shown, tags or fusion partners need not be part of it.

Target: T1, PIL15-BD (rice (Oryza sativa)) (UniProt Q0JNI9)
T1 sequence: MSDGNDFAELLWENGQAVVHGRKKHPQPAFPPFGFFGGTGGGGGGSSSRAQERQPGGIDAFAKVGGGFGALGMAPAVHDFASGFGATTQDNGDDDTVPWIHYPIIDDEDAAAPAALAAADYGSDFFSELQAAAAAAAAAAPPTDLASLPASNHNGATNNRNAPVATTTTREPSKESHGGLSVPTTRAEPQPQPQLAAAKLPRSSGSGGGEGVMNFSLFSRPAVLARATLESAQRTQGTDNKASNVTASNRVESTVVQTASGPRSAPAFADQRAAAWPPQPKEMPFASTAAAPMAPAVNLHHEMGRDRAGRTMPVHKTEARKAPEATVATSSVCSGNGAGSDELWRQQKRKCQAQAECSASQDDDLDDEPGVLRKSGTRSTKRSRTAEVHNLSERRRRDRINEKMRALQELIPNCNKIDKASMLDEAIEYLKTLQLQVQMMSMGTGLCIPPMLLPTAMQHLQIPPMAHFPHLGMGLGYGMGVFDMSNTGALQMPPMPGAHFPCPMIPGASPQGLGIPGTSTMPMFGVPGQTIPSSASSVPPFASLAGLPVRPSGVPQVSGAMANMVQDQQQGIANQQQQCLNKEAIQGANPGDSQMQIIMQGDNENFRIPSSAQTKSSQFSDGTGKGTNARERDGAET
Assay: two-hybrid; pairwise, pGAD424 (AD) and pGBT9 (BD) fusions in yeast strain PJ694A; growth on SD/-Leu-His-Trp

- binding: no binding
B1: DEP1-AD (protein, UniProt Q67UU9 1-426)
chain: MGEEAVVMEAPRPKSPPRYPDLCGRRRMQLEVQILSREITFLKDELHFLEGAQPVSRSGCIKEINEFVGTKHDPLIPTKRRRHRSCRLFRWIGSKLCICISCLCYCCKCSPKCKRPRCLNCSCSSCCDEPCCKPNCSACCAGSCCSPDCCSCCKPNCSCCKTPSCCKPNCSCSCPSCSSCCDTSCCKPSCTCFNIFSCFKSLYSCFKIPSCFKSQCNCSSPNCCTCTLPSCSCKGCACPSCGCNGCGCPSCGCNGCGCPSCGCNGCGLPSCGCNGCGSCSCAQCKPDCGSCSTNCCSCKPSCNGCCGEQCCRCADCFSCSCPRCSSCFNIFKCSCAGCCSSLCKCPCTTQCFSCQSSCCKRQPSCCKCQSSCCEGQPSCCEGHCCSLPKPSCPECSCGCVWSCKNCTEGCRCPRCRNPCCLSGCLC
